PubChem BioAssay AID504808 – Drosophila RNAi Screening Center – 2011

Screen: 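Fly genes required to hold E2F transcription in check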 (primary screen)
Cell system: Drosophila S2 cells
Knock-down reagent: long dsRNA against Drosophila genes
Detection: 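Dual luciferase plate measurements; E2F-specific signal taken as firefly over Renilla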
Reading the numbers: E2F firefly: higher = more E2F reporter activity; Renilla normaliser: higher = more normaliser reporter signal
Hit rule: 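a knock-down counted as active when the firefly/Renilla E2F signal rose above 50%, a threshold chosen arbitrarily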
The screen tested about 21,000 reagents; below is a random part of those that have a named target and a result. Over the whole deposit, 18 (0.084%) are marked active. 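Raw counts without plate normalisation, one of two replicates; the ratio scores behind the calls were not deposited.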 A number with no mark means an inactive call. Names joined by + are all predicted targets of the reagent. Not given: the amount of reagent, the time to read-out.

| target gene | dsRNA | E2F firefly, rep 1 | Renilla normaliser, rep 1 |
| --- | --- | --- | --- |
| Tmem131 (Transmembrane protein 131) | DRSC07154 | 75939 | 3108 |
| CG32647 | DRSC19690 | 1.45e5 | 6239 |
| CG32647 | DRSC19878 | 1.09e5 | 7044 |
| Suv3 (Suv3 helicase) | DRSC12335 | 73513 | 3544 |
| Trs33 (TRAPP subunit 33) | DRSC15990 | 1.03e5 | 5868 |
| ppk (pickpocket) | DRSC03595 | 1.02e5 | 4181 |
| CG17207 | DRSC15198 | 1.39e5 | 6439 |
| SppL (Signal peptide peptidase-like) | DRSC15228 | 1.13e5 | 5748 |
| inaD (inactivation no afterpotential D) | DRSC04694 | 1.04e5 | 4429 |
| CG8839 | DRSC07285 | 152 | 50 |
| CG30289 | DRSC03870 | 1.28e5 | 4092 |
| CG9759 | DRSC16558 | 81449 | 3465 |
| rogdi | DRSC10906 | 89861 | 3711 |
| Pdxk (Pyridoxal kinase) | DRSC10419 | 1.10e5 | 5671 |
| CG32988 | DRSC02692 | 1.54e5 | 5531 |
| sd (scalloped) | DRSC20370 | 1.37e5 | 6386 |
| CG13996 | DRSC02328 | 1.41e5 | 4518 |
| cyp33 + CG34194 | DRSC05666 | 1.51e5 | 7928 |
| Smvt (Sodium-dependent multivitamin transporter) | DRSC15426 | 56355 | 3701 |
| CG11756 | DRSC19424 | 1.37e5 | 6662 |
| Toll-9 | DRSC11776 | 1.25e5 | 6717 |
| CSN1b (COP9 signalosome subunit 1b) | DRSC11108 | 69880 | 3290 |
| CG12395 | DRSC19453 | 1.52e5 | 6939 |
| NK7.1 | DRSC16755 | 61356 | 3351 |
| Tlk (Tousled-like kinase) | DRSC17731 | 1.00e5 | 7552 |
| Tlk (Tousled-like kinase) | DRSC17835 | 60431 | 4115 |
| mr (morula) | DRSC04332 | 80875 | 3730 |
| GC1 | DRSC15322 | 1.30e5 | 5599 |
| Tomosyn | DRSC19365 | 7638 | 748 |
| Tomosyn | DRSC19692 | 8023 | 365 |
| Tomosyn | DRSC19782 | 8110 | 668 |
| Tomosyn | DRSC19842 | 1.31e5 | 4582 |
| grass (Gram-positive Specific Serine protease) | DRSC15911 | 1.21e5 | 6668 |
| Hr78 (Hormone-receptor-like in 78) | DRSC11866 | 71125 | 3091 |
| CG11131 | DRSC11636 | 1.47e5 | 7182 |
| CG5326 | DRSC13568 | 84333 | 2429 |
| CG5326 | DRSC15770 | 57412 | 3196 |
| ft (fat) | DRSC00819 | 97248 | 3182 |
| zpg (zero population growth) | DRSC09702 | 1.00e5 | 3888 |
| CG42685 | DRSC01971 | 1.03e5 | 4584 |
| CG4653 | DRSC19909 | 1.62e5 | 6865 |
| CG3420 | DRSC04995 | 97022 | 4262 |
| Srp54 (Splicing regulatory protein 54) | DRSC03442 | 74680 | 3586 |
| ebd2 (earthbound 2) | DRSC11682 | 1.41e5 | 5253 |
| CG9300 | DRSC11064 | 72631 | 3173 |
| DnaJ-1 (DnaJ-like-1) | DRSC11145 | 69540 | 3614 |
| CG1695 | DRSC20538 | 1.35e5 | 6510 |
| CG14232 | DRSC19588 | 1.74e5 | 5606 |
| CG3358 | DRSC04992 | 78634 | 3952 |
| CG13891 | DRSC08361 | 95864 | 3803 |
| bgm (bubblegum) | DRSC03495 | 62332 | 3396 |
| CG3277 | DRSC00588 | 1.54e5 | 6450 |
| ry (rosy) | DRSC17048 | 79588 | 3492 |
| CG10713 | DRSC09786 | 1.43e5 | 6760 |
| Aldh7A1 (Aldehyde dehydrogenase 7 family member A1) | DRSC11083 | 82147 | 4171 |
| CG30467 | DRSC07097 | 89562 | 4099 |
| Eogt (EGF-domain O-GlcNAc transferase) | DRSC00727 | 86560 | 3901 |
| GstE5 (Glutathione S transferase E5) | DRSC06675 | 1.50e5 | 5138 |
| Ir47a (Ionotropic receptor 47a) | DRSC06215 | 1.48e5 | 4684 |
| jar (jaguar) | DRSC16974 | 1.02e5 | 5867 |
| CG14380 | DRSC14840 | 1.26e5 | 6198 |
| CG13016 | DRSC06271 | 72436 | 2819 |
| Ddrgk1 (DDRGK domain containing 1) | DRSC15897 | 66783 | 2950 |
| tomboy40 | DRSC04918 | 84107 | 3750 |
| CG1910 | DRSC15400 | 1780 | 916 |
| CG13159 | DRSC06283 | 91881 | 3598 |
| CG8671 | DRSC03102 | 1.00e5 | 3943 |
| CG8671 | DRSC03103 | 96070 | 4305 |
| Usp14 (Ubiquitin specific protease 14) | DRSC02853 | 77879 | 3450 |
| Osi3 (Osiris 3) | DRSC12175 | 1.39e5 | 6906 |
| Atac1 (Ada2a-containing complex component 1) | DRSC03155 | 1.55e5 | 5468 |
| CG13365 | DRSC17899 | 60796 | 3606 |
| Decay (Death executioner caspase related to Apopain/Yama) | DRSC16930 | 99242 | 4810 |
| CG7707 | DRSC10903 | 1.39e5 | 7917 |
| Kdm4A (Lysine demethylase 4A) | DRSC06586 | 3190 | 206 |
| Ufc1 (Ubiquitin-fold modifier conjugating enzyme 1) | DRSC07156 | 83654 | 3270 |
| ref(2)P (refractory to sigma P) | DRSC03601 | 98570 | 4534 |
| vimar (visceral mesodermal armadillo-repeats) | DRSC05026 | 80335 | 4076 |
| CG1227 | DRSC12534 | 81910 | 3691 |
| Lkr (Leucokinin receptor) | DRSC09754 | 86386 | 4000 |
| bc10 | DRSC11326 | 95105 | 3536 |
| CG15531 | DRSC15068 | 1.35e5 | 6032 |
| MESK2 (Misexpression suppressor of KSR 2) | DRSC04258 | 1.01e5 | 4315 |
| mRpS25 (mitochondrial ribosomal protein S25) | DRSC19598 | 2.10e5 | 11805 |

Only “E2F firefly, rep 1”, for 12 of the entries above:
Tlk (Tousled-like kinase) [DRSC17835] = 60431
mr (morula) [DRSC04332] = 80875
GC1 [DRSC15322] = 1.30e5
Tomosyn [DRSC19365] = 7638
Tomosyn [DRSC19692] = 8023
Tomosyn [DRSC19782] = 8110
Tomosyn [DRSC19842] = 1.31e5
grass (Gram-positive Specific Serine protease) [DRSC15911] = 1.21e5
Hr78 (Hormone-receptor-like in 78) [DRSC11866] = 71125
CG11131 [DRSC11636] = 1.47e5
CG5326 [DRSC13568] = 84333
CG5326 [DRSC15770] = 57412
